Results are given in words; binding and its absence hold for the method and conditions named. For part of these data: In cells and extracts the contact can be indirect. Some binding calls cover weakened binding; strength is not graded here. Tags and fused reporters may be left off the sequences shown. One block for each molecule: values may come before it.
How the values were obtained:
[1] = target: T1, MBP-14-3-3 (amino acids 1-247), full length 14-3-3 gamma (human) (UniProt P61981); assay: pull-down; MBP-14-3-3 bound to amylose resin mixed with 0.5 mg mouse cardiac homogenate (10 mM NaPO4 pH 7.2, 2 mM EDTA, 120 mM NaCl, 1% NP-40), 4 °C, 16 h; Western blot; only the target purified
T1 sequence: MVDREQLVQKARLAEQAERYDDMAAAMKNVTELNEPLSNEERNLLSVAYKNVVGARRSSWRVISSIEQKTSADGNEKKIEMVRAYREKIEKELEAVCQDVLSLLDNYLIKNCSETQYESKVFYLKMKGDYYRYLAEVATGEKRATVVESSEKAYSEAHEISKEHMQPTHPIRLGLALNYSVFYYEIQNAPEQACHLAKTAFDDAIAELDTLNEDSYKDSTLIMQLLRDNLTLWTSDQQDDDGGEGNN

[2] = target: T1, MBP-14-3-3 (amino acids 1-247), full length 14-3-3 gamma (human); assay: pull-down; MBP-14-3-3 bound to amylose resin incubated with lysates of HEK 293 cells transfected with myc-CFL2 (50 mM Tris-HCl pH 8.0, 150 mM NaCl, 1% NP-40), in the presence of phosphorylated or non-phosphorylated eluted GST-Hsp20 (WT, S16A, S16D or P20L); blot with myc antibody; only the target purified
[3] = target: GST-CFL2 (amino acids 1-166), non-phosphorylated (UniProt Q9Y281); assay: far-Western, overlay or dot blot; purified GST fusion proteins separated by SDS-PAGE and transferred to nitrocellulose; membranes incubated with MBP-14-3-3 fusion protein (or MBP as control); detection with anti-MBP; both purified
[4] = target: T2, GST-CFL2 (amino acids 1-55) (UniProt Q9Y281); assay: as above
T2 sequence: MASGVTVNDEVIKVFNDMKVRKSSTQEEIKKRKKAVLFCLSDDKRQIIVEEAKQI

binding [1]: binds
Molecule: cofilin-2 (CFL2), endogenous in mouse cardiac muscle (from UniProt P45591 1-166)

binding [2]: binds
Molecule: myc-CFL2, full length (from UniProt Q9Y281 1-166)

binding [3]: binds
B1: MBP-14-3-3 (amino acids 1-120) (protein)
chain: MVDREQLVQKARLAEQAERYDDMAAAMKNVTELNEPLSNEERNLLSVAYKNVVGARRSSWRVISSIEQKTSADGNEKKIEMVRAYREKIEKELEAVCQDVLSLLDNYLIKNCSETQYESK

binding [1]: binds
B2: Hsp20 (small heat shock protein 20), endogenous in mouse cardiac muscle (protein, UniProt Q5EBG6 1-162)
chain: MEIPVPVQPSWLRRASAPLPGFSAPGRLFDQRFGEGLLEAELASLCPAAIAPYYLRAPSVALPTAQVSTDSGYFSVLLDVKHFLPEEISVKVVDDHVEVHARHEERPDEHGFIAREFHRRYRLPPGVDPAAVTSALSPEGVLSIQATPASAQAQLPSPPAAK

binding [3]: binds
binding [4]: binds
B3: MBP-14-3-3 (amino acids 1-247), full length 14-3-3 gamma (protein)
chain: T1 sequence

— PMC7765622, “The Cardioprotective PKA-Mediated Hsp20 Phosphorylation Modulates Protein Associations Regulating Cytoskeletal Dynamics” (International Journal of Molecular Sciences, 2020)
